The assay addresses T1, Hormone-sensitive lipase (Rattus norvegicus, UniProt P15304).
T1 sequence (P15304 whole entry): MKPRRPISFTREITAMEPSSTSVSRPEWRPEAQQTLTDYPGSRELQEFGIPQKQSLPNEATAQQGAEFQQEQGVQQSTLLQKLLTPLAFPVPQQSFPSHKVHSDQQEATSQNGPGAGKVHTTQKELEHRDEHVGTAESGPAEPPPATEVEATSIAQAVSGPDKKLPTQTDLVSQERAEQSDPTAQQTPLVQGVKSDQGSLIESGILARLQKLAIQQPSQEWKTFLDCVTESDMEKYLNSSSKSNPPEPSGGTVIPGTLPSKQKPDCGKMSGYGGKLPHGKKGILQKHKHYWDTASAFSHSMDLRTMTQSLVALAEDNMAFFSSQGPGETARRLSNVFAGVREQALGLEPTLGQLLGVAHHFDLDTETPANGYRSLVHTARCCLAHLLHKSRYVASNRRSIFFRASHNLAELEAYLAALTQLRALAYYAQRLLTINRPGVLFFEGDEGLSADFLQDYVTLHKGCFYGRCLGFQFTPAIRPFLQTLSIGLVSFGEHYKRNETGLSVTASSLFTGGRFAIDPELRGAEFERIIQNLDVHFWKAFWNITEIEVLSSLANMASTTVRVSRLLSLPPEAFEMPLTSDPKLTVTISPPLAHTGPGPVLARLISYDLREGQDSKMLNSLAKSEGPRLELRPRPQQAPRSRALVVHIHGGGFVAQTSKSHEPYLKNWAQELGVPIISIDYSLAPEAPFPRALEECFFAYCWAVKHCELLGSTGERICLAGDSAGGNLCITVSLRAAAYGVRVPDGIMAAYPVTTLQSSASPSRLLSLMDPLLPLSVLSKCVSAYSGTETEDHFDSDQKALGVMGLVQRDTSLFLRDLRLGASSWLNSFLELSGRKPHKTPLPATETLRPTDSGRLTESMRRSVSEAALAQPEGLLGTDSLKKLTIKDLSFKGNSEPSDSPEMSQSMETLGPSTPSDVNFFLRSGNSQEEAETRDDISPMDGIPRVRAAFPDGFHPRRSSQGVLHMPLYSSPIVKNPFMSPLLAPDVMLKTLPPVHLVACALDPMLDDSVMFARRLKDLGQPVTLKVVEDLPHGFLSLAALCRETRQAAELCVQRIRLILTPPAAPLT
In words: Inhibition of HSL in Wistar rat isolated fat cells by spectrophotometric assay.

A word on the IC50: it is the concentration that inhibits the measured activity by half. Higher therefore signals a need for much substance.

As for `COc1ccc2cc([C@H](C)C(=O)O)ccc2c1` [NAPROXEN], it took 1.2 µM to reach half-maximal inhibition (IC50).

Source of the values: ChEMBL document CHEMBL1140143, “Combining ligand-based pharmacophore modeling, quantitative structure-activity relationship analysis and in silico screening for the discovery of new potent hormone sensitive lipase inhibitors” (J Med Chem, 2008).
